Measurements published in patent publication US20140134176A1.
No constants are given. Whether binding was seen depends on the method and setting. Some binding calls cover weakened binding; strength is not graded here. Blank lines part the entries; values can stand above or below the binder they belong to.

By UniProt entry, the sequences of proteins in these tests, tags left out. Residues count along the entry.
UniProt P31240, residues 82-190: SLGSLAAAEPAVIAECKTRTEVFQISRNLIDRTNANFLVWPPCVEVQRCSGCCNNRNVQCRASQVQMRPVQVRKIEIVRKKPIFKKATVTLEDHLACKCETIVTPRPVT
UniProt Q05028, residues 74-182: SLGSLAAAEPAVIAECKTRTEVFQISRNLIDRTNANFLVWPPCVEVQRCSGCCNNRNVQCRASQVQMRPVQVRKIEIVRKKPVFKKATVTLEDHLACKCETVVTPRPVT

Columns and labels:
human PDGF-AB (human) [1] = molecular target: human PDGF-AB (human) (UniProt P04085); experiment: SPR (Biacore 3000)
human PDGF-BB (human) [2] = molecular target: human PDGF-BB (human) (UniProt P01127); experiment: SPR (Biacore 3000)
mouse PDGF-BB (mouse) [3] = molecular target: mouse PDGF-BB (mouse) (UniProt P31240); experiment: SPR (Biacore 3000)
rat PDGF-BB (rat) [4] = molecular target: rat PDGF-BB (rat) (UniProt Q05028); experiment: SPR (Biacore 3000)
human PDGF-AB (human) [5] = molecular target: human PDGF-AB (human) (UniProt P04085); experiment: SPR (Biacore 3000), MOR8457-16 captured on anti-human IgG on a CM5 chip, Hu-PDGF-AB at 0.5 and 1 nM, 2 min injection, 10 min dissociation
rat PDGF-BB (rat) [6] = molecular target: rat PDGF-BB (rat) (UniProt Q05028); experiment: SPR (Biacore 3000), MOR8457-16 captured on anti-human IgG on a CM5 chip, Rat-PDGF-BB at 0.5 and 1 nM, 2 min injection, 10 min dissociation
human PDGF-BB (human) [7] = molecular target: human PDGF-BB (human) (UniProt P01127); experiment: SPR (Biacore 3000), MOR8457-16 captured on anti-human IgG on a CM5 chip, Hu-PDGF-BB at 0.25, 0.5 and 1 nM, 2 min injection, 10 min dissociation
mouse PDGF-BB (mouse) [8] = molecular target: mouse PDGF-BB (mouse) (UniProt P31240); experiment: SPR (Biacore 3000), MOR8457-16 captured on anti-human IgG on a CM5 chip, Mu-PDGF-BB at 0.25, 0.5 and 1 nM, 2 min injection, 10 min dissociation
human PDGF-AB (human) [9] = molecular target: human PDGF-AB (human) (UniProt P04085); experiment: SPR (Biacore)
human PDGF-BB (human) [10] = molecular target: human PDGF-BB (human) (UniProt P01127); experiment: SPR (Biacore)
human PDGF-AB (human) [11] = molecular target: human PDGF-AB (human) (UniProt P04085); experiment: SPR (Biacore) sensorgrams
human PDGF-BB (human) [12] = molecular target: human PDGF-BB (human) (UniProt P01127); experiment: SPR (Biacore) sensorgrams
mouse PDGF-BB (mouse) [13] = molecular target: mouse PDGF-BB (mouse) (UniProt P31240); experiment: SPR (Biacore) sensorgrams
rat PDGF-BB (rat) [14] = molecular target: rat PDGF-BB (rat) (UniProt Q05028); experiment: SPR (Biacore) sensorgrams
human PDGF-BB (human) [15] = molecular target: human PDGF-BB (human) (UniProt P01127); experiment: SPR sequential binding, MOR8457-mIgG1 captured first
human PDGF-BB (human) [16] = molecular target: human PDGF-BB (human) (UniProt P01127); experiment: SPR sequential binding, MOR8457-mIgG1 captured via anti-mouse IgG
human PDGF-BB (human) [17] = molecular target: human PDGF-BB (human) (UniProt P01127); experiment: SPR (Biacore), MOR8457-mIgG1 captured on anti-mouse IgG on a CM5 chip, human PDGF-BB 1 nM injected for 6 min
human PDGF-BB (human) [18] = molecular target: human PDGF-BB (human) (UniProt P01127); experiment: SPR (Biacore), antibody captured on anti-mouse IgG on a CM5 chip, huBB injected at 0.25, 0.5 and 1 nM for 2 min, 10 min dissociation
mouse PDGF-BB (mouse) [19] = molecular target: mouse PDGF-BB (mouse) (UniProt P31240); experiment: SPR (Biacore), antibody captured on anti-mouse IgG on a CM5 chip, muBB injected at 0.25, 0.5 and 1 nM for 2 min, 10 min dissociation
human PDGF-AB (human) [20] = molecular target: human PDGF-AB (human) (UniProt P04085); experiment: SPR (Biacore), antibody captured on anti-mouse IgG on a CM5 chip, huAB injected at 0.25, 0.5 and 1 nM for 2 min, 10 min dissociation
rat PDGF-BB (rat) [21] = molecular target: rat PDGF-BB (rat) (UniProt Q05028); experiment: SPR (Biacore), antibody captured on anti-mouse IgG on a CM5 chip, ratBB injected at 0.25, 0.5 and 1 nM for 2 min, 10 min dissociation
human PDGF-BB (human) [22] = molecular target: human PDGF-BB (human) (UniProt P01127); experiment: SPR (Biacore) competition in solution: MOR8457-mIgG1 serially diluted, mixed with human PDGF-BB, 20 h at 2-8 C, mixture injected over PDGFRβ-hIgG1 captured on anti-human IgG; blocked partner PDGFRβ-hIgG1

binding (human PDGF-AB (human) [1]): binds | binding (human PDGF-BB (human) [2]): binds | binding (mouse PDGF-BB (mouse) [3]): binds | binding (rat PDGF-BB (rat) [4]): binds | binding (human PDGF-AB (human) [5]): binds | binding (rat PDGF-BB (rat) [6]): binds | binding (human PDGF-BB (human) [7]): binds | binding (mouse PDGF-BB (mouse) [8]): binds
B1: MOR8457-16 (antibody, human IgG1, lambda, V domains shown)
VH: EVQLLQSGGGLVKPGGSLRLSCAASGFTFSSYAMSWVRQAPGKGLEWVSYISDDGSLKYYADSVKGRFTISRDNSKNTLYLQMNSLRAEDTAVYYCARHPYWYGGQLDLWGQGTLVTVSS
VL: SYELTQPPSVSVSPGQTASITCSGDSLGSYFVHWYQQKPGQSPVLVIYDDSKRPSGIPERFSGSNSGNTATLTISGTQAMDEADYYCSAFTHNSDVFGGGTKLTVLG

binding (human PDGF-AB (human) [9]): binds | binding (human PDGF-BB (human) [10]): binds | binding (human PDGF-AB (human) [11]): binds | binding (human PDGF-BB (human) [12]): binds | binding (mouse PDGF-BB (mouse) [13]): binds | binding (rat PDGF-BB (rat) [14]): binds | binding (human PDGF-BB (human) [15]): binds | binding (human PDGF-BB (human) [16]): binds | binding (human PDGF-BB (human) [17]): binds | binding (human PDGF-BB (human) [18]): binds | binding (mouse PDGF-BB (mouse) [19]): binds | binding (human PDGF-AB (human) [20]): binds | binding (rat PDGF-BB (rat) [21]): binds | binding (human PDGF-BB (human) [22]): binds
B2: MOR8457-mIgG1 (antibody)
heavy: EVQLVESGGGLVQPGGSLRLSCAASGFTFSSYAMSWVRQAPGKGLEWVSYISDDGSLKYYADSVKGRFTISRDNSKNTLYLQMNSLRAEDTAVYYCARHPYWYGGQLDLWGQGTLVTVSSAKTTPPSVYPLAPGSAAQTNSVTLGCLVKGYFPEPVTVTWNSGSLSSGVHTFPAVLQSDLYTLSSSVTVPSSTWPSETVTCNVAHPASSTKVDKKIVPRDCGCKPCICTVPEVSSVFIFPPKPKDVLTITLTPKVTCVVVDISKDDPEVQFSWFVDDVEVHTAQTQPREEQFNSTFRSVSELPIMHQDWLNGKEFKCRVNSAAFPAPIEKTISKTKGRPKAPQVYTIPPPKEQMAKDKVSLTCMITDFFPEDITVEWQWNGQPAENYKNTQPIMDTDGSYFVYSKLNVQKSNWEAGNTFTCSVLHEGLHNHHTEKSLSHSPGK
light: SYELTQPPSVSVAPGQTARISCSGDSLGSYFVHWYQQKPGQAPVLVIYDDSNRPSGIPERFSGSNSGNTATLTISGTQAEDEADYYCSAFTHNSDVFGGGTKLTVLQPKSSPSVTLFPPSSEELETNKATLVCTITDFYPGVVTVDWFTKVDGTPVTQGMETTQPSKQSNNKYMASSYLTLTARAWERHSSYSCQVTHEGHTVEFTKSLSRADCS
